Substitutions are numbered along the chain they refer to. Results are given in words; binding and its absence hold for the method and conditions named. Some entries that bind do so weakly or less than the wild type. For part of these data: Sequences can lack the tags named with a protein.
Tests used:
[1] = biological target: T1, P467_RHIPU, yeast surface display, C-terminal SAG1 fusion (Rhipicephalus pulchellus) (UniProt L7M8Z8); experiment: flow cytometry on cells; yeast (EBY100) displaying one evasin fusion after galactose induction, labelled in PBS with biotinylated chemokine (Almac) and streptavidin-Alexa647, 30 minutes on ice; compared with yeast bearing the empty surface display vector; only the binder purified
T1 sequence: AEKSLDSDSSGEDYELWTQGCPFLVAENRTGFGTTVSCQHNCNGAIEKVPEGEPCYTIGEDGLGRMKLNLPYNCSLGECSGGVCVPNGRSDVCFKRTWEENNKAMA

Chains of the proteins cited; added tags and fusions are not shown. Residues count along the entry.
UniProt P13500, residues 24-99: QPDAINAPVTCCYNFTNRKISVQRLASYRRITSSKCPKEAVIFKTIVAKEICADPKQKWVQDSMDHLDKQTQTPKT
UniProt P10147, residues 24-92: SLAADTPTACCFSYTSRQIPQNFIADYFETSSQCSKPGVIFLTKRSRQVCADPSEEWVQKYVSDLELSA
UniProt P13236, residues 24-92: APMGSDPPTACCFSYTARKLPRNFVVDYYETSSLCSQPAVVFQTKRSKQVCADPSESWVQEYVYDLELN
UniProt P13501, residues 24-91: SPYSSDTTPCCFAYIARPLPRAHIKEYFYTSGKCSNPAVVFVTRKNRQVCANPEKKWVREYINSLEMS
UniProt P80075, residues 24-99: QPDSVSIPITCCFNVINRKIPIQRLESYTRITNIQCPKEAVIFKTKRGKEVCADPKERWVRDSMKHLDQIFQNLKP
UniProt P51671, residues 24-97: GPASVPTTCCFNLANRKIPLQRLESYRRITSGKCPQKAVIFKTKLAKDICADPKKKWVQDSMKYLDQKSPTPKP
UniProt Q92583, residues 24-94: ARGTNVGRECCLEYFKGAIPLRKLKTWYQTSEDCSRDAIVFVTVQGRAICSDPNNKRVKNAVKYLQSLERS
UniProt Q99731, residues 22-98: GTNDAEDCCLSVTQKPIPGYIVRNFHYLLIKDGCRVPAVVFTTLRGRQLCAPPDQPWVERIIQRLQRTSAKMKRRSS

[2] = biological target: T2, P467_RHIPU, yeast surface display, N-terminal AGA2 fusion (Rhipicephalus pulchellus) (UniProt L7M8Z8); experiment: as above
T2 sequence: T1 sequence

[3] = biological target: T3, P1182_AMBMA, yeast surface display library clones (Amblyomma maculatum) (UniProt G3MJ83); experiment: flow cytometry on cells; yeast surface display library (mini-library of 24, maxi-library of 352 putative evasins; N-terminal AGA2, C-terminal SAG1 or AGA2) labelled with one biotinylated human CC chemokine and streptavidin-AF647, two rounds of FACS with a gate set by omitting the chemokine; clones sequenced, re-transformed and retested by FACS; only the binder purified
T3 sequence: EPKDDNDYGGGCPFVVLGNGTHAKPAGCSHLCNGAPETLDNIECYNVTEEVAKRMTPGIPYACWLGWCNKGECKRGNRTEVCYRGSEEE

[4] = biological target: T4, P467_RHIPU, yeast surface display library clones (Rhipicephalus pulchellus) (UniProt L7M8Z8); experiment: as above
T4 sequence: T1 sequence

[5] = biological target: T5, P1183_AMBTR, yeast surface display library clones (Amblyomma triste); experiment: as above
T5 sequence: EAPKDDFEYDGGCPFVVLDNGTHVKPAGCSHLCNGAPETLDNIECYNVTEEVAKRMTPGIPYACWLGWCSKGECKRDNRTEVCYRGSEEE

[6] = biological target: T6, P991_AMBCA, yeast surface display library clones (Amblyomma cajennense); experiment: as above
T6 sequence: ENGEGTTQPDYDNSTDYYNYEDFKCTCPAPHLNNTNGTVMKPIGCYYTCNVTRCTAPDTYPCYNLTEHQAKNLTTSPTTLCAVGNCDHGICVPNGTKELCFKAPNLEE

[7] = biological target: T7, P1180_AMBTR, yeast surface display library clones (Amblyomma triste); experiment: as above
T7 sequence: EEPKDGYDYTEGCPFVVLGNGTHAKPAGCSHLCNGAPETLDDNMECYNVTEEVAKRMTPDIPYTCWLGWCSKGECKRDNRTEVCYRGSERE

[8] = biological target: T8, P546_AMBCA, yeast surface display library clones (Amblyomma cajennense); experiment: as above
T8 sequence: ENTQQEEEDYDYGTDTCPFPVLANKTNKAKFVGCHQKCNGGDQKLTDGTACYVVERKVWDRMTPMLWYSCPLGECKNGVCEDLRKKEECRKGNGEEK

[9] = biological target: T9, P974_AMBCA, yeast surface display library clones (Amblyomma cajennense); experiment: as above
T9 sequence: T8 sequence with E8Q, S69E, E88D

[10] = biological target: T10, P985_AMBPA, yeast surface display library clones (Amblyomma parvum); experiment: as above
T10 sequence: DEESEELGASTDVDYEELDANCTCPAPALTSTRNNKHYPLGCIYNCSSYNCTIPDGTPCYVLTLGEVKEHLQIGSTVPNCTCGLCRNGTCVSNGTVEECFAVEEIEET

Measured: binding

biotinylated CCL2 (from UniProt P13500 24-99) (ligand)
not listed: [8] | [9] | [10]
binds: all other assays above

biotinylated CCL3 (from UniProt P10147 24-92) (ligand)
not listed: [5] | [6] | [10]
binds: all other assays above

biotinylated CCL4 (from UniProt P13236 24-92) (ligand)
binds: [3] | [9] | [6] | [7]

biotinylated CCL5 (from UniProt P13501 24-91) (ligand)
binds: [1] | [2] | [10] | [4] | [6]

biotinylated CCL8 (from UniProt P80075 24-99) (ligand)
binds: [1] | [2] | [3] | [9] | [6] | [7]

biotinylated CCL11 (from UniProt P51671 24-97) (ligand)
binds: [1]

biotinylated CCL17 (from UniProt Q92583 24-94) (ligand)
binds: [9] | [6]

biotinylated CCL19 (from UniProt Q99731 22-98) (ligand)
binds: [6]
